In article doi:10.1101/2024.06.25.600357:
No constants are given. Whether binding was seen depends on the method and setting. Binding seen in cells or lysates may run through a third protein.

Biological target: T1, Vangl1 (human (endogenous in HUVEC)) (UniProt Q8TAA9)
T1 sequence: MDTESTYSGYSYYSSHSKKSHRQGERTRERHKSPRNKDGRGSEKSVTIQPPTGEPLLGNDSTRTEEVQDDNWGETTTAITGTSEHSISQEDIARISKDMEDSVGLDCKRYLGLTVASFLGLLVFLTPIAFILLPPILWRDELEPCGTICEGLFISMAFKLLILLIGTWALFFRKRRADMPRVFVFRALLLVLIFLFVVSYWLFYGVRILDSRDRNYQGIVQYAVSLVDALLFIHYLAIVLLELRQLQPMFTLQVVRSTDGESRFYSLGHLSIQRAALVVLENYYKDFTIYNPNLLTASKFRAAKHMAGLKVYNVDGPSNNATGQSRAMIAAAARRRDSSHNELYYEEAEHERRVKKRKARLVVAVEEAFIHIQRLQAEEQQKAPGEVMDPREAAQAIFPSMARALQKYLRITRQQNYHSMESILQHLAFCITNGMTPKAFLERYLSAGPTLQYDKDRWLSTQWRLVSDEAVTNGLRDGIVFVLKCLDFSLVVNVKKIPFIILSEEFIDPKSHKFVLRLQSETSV
Assay: pull-down

- binding: no binding
B1: VE-Cadherin (protein, UniProt P33151 48-784)
chain: DWIWNQMHIDEEKNTSLPHHVGKIKSSVSRKNAKYLLKGEYVGKVFRVDAETGDVFAIERLDRENISEYHLTAVIVDKDTGENLETPSSFTIKVHDVNDNWPVFTHRLFNASVPESSAVGTSVISVTAVDADDPTVGDHASVMYQILKGKEYFAIDNSGRIITITKSLDREKQARYEIVVEARDAQGLRGDSGTATVLVTLQDINDNFPFFTQTKYTFVVPEDTRVGTSVGSLFVEDPDEPQNRMTKYSILRGDYQDAFTIETNPAHNEGIIKPMKPLDYEYIQQYSFIVEATDPTIDLRYMSPPAGNRAQVIINITDVDEPPIFQQPFYHFQLKENQKKPLIGTVLAMDPDAARHSIGYSIRRTSDKGQFFRVTKKGDIYNEKELDREVYPWYNLTVEAKELDSTGTPTGKESIVQVHIEVLDENDNAPEFAKPYQPKVCENAVHGQLVLQISAIDKDITPRNVKFKFILNTENNFTLTDNHDNTANITVKYGQFDREHTKVHFLPVVISDNGMPSRTGTSTLTVAVCKCNEQGEFTFCEDMAAQVGVSIQAVVAILLCILTITVITLLIFLRRRLRKQARAHGKSVPEIHEQLVTYDEEGGGEMDTTSYDVSVLNSVRRGGAKPPRPALDARPSLYAQVQKPPRHAPGAHGGPGEMAAMIEVKKDEADHDGDGPPYDTLHIYGYEGSESIAESLSSLGTDSSDSDVDYDFLNDWGPRFKMLAELYGSDPREELLY
